These are yes or no findings as the source states them, for the method shown. Binding calls can cover weak binding; strength is not graded here. For some of these results: Binding seen in cells or lysates may run through a third protein. For some of these results: Tags and fused reporters may be left off the sequences shown. Values belong to the molecule of their own block, whether it stands above or below them.
Key:
[1] = molecular target: T1, OsNEK6 full length in pGBKT7 (bait) (rice (Oryza sativa)) (UniProt Q6YY75); test: two-hybrid; pairwise co-transformation of pGADT7 and pGBKT7 constructs into yeast strain Y2H Gold; SD/-Trp/-Leu, then SD/-Ade/-His/-Trp/-Leu/X-alpha-Gal plates for 3-5 days
T1 sequence: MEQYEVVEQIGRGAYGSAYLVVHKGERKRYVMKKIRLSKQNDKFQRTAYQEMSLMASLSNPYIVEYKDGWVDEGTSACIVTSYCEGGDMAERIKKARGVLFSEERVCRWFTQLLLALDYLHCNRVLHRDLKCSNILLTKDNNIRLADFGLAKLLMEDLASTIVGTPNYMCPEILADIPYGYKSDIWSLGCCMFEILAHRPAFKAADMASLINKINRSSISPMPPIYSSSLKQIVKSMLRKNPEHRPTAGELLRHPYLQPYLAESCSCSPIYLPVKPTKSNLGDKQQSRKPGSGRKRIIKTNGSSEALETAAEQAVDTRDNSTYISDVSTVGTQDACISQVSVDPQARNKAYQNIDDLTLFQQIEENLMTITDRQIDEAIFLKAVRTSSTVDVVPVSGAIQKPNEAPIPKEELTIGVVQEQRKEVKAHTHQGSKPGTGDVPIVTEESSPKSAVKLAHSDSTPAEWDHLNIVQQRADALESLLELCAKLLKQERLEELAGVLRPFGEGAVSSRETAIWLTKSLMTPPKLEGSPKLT

[2] = molecular target: T2, OsNEK6-cYFP (rice (Oryza sativa)) (UniProt Q6YY75); test: split reporter; BiFC; pSAT6-NYFP and pSAT6-CYFP constructs transiently expressed in rice protoplasts via PEG transformation for 2 days; confocal microscopy
T2 sequence: T1 sequence

[3] = molecular target: OsCAMK1 full length in pGBKT7 (bait) (rice (Oryza sativa)) (UniProt Q10SI6); test: two-hybrid; pairwise co-transformation of pGADT7 and pGBKT7 constructs into yeast strain Y2H Gold; SD/-Trp/-Leu, then SD/-Ade/-His/-Trp/-Leu/X-alpha-Gal plates for 3-5 days
[4] = molecular target: OsCAMK1-nYFP (rice (Oryza sativa)); test: split reporter; BiFC; pSAT6-NYFP and pSAT6-CYFP constructs transiently expressed in rice protoplasts via PEG transformation for 2 days; confocal microscopy

- binding [1]: binds
Molecule: OsCAMK1 full length in pGADT7 (prey) (from UniProt Q10SI6)

- binding [2]: binds
Molecule: OsCAMK1-nYFP (rice (Oryza sativa))

- binding [3]: binds
B1: OsDi19-3 full length in pGADT7 (prey) (protein, UniProt Q5QMP3 1-246)
chain: MDSEHWISSLAAAKRFYAAQLGHVDDMAGIGMEEVEMEMEDDGEGMELELEMQLEEATWPDVACPYCYEDHDIASLCAHLEEDHPYEPHTSPCPICFEKITRDMLNHITMQHGYLFKSGRRMRRFDIPESQALSLLSRDLRDAQLQALLGGGHRQRRSNTTATNISADPLLSSFGLGFSTLDSEERSKAPVPIPDDTSIHKDTPAQPWESRIDSSLTSEEREQKRKQATDRATFVQGLVLSTLFED

- binding [4]: binds
B2: OsDi19-cYFP (protein, UniProt Q5QMP3 1-246)
chain: B1 chain
